Screening data, single-dose tests

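Cell assay of Leishmania donovani living inside macrophages; the read-out is not stated. Compounds at 30 µM. The record gives no direction; compounds that gave an IC50 in retests scored well above the rest, so higher reads as stronger inhibition. Of about 69,000 compounds tested this way, about 1,000 (1.5%) reached 50% or more in at least one test.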

Each number is a percent effect as filed. How 0% and 100% were set is not recorded. Most values in the screen are low, and negative values occur. Compounds were drawn at random from those tested, without regard to their results. Two or more numbers in one place are separate tests of the same structure; such repeats can differ widely.

Compound	percent effect
Cc1cc(NC(=O)c2nc(N3CCCC3)ncc2Cl)nc(C(C)C)n1	9.502
CCCn1nc(C)c2c1NC(=O)CC2c1ccc(CN2CCCC2)s1 (stereo not drawn)	15.53
Cc1nc(CN2CCC3(C2)CN(C(=O)c2ccc[nH]2)C3)cs1	35.81
O=C(O)C(F)(F)F.OCCN1CCOC2(CCCN(c3cccc(F)c3)C2)C1 (stereo not drawn)	37.14
CCC(=O)N1CCCC1c1ccsc1 (stereo not drawn)	7.678
COc1cc2cc(C(=O)N[C@@H](C)C(=O)O)n(C)c2c(OC)c1OC	2.156
c1cncc(NCCNC2CCCNC2)c1 (stereo not drawn)	-0.9465
Cn1ncc2c(N3CCCN(C(=O)c4ccsc4)CC3)ncnc21	36.48
Nc1nc(CC(=O)N2CCCC(CCc3cccc(F)c3)C2)cc(=O)[nH]1 (stereo not drawn)	2.472
COc1ccccc1-c1cc(C(=O)N2CCCC2)c2cnn(C)c2n1	8.737
c1cnn(CC2CCCCN2Cc2nc(-c3ccoc3)no2)c1 (stereo not drawn)	-21.34
CCc1nnc2n1CCN(Cc1ccc(C(=O)N3CCCC3)cc1)C2	27.01
O=C(CNc1nc(C(F)(F)F)cs1)N1CCc2sccc2C1	-189.1
CNC(=O)c1nnc2ccc(N3CCOCC3)cc2n1	40.48
[H][C@@]12CN(c3nnc(C)s3)C[C@H](C(=O)NCc3ccco3)[C@]1([H])CCO2	10.28 & 1.875
c1ccc(Cc2nc(CN3CCCC3Cn3cncn3)cs2)cc1 (stereo not drawn)	-0.1933
Cc1ccc2cc(CNCCCN3CCOCC3)c(=O)[nH]c2c1	26.4
Cc1nc(CNC(=O)CCN2CCN(c3ccccc3)CC2)oc1C	-4.765
CC(C)c1nccn1C(C)C(=O)N1CCN(c2ccccc2Cl)CC1 (stereo not drawn)	49.74
CN(C)C(=O)CCNC(=O)NCc1ccc(Br)cc1Cl	4.236
Cc1ccsc1CN1CC2(CCN(C(=O)C3CC3)CC2)CC1C(=O)O (stereo not drawn)	49
Fc1ccc(NC2CCCN(Cc3ccncc3)C2)cc1 (stereo not drawn)	-11.86
Cc1c(CNC(=O)c2cn(CCC3CCCCN3)nn2)cnn1C (stereo not drawn)	27.46
COc1ccc2nnc(CCCC(=O)NCc3ccccc3)n2n1	-8.358
CC(C)c1nc2c(n1C)CCN(CCc1ccccn1)C2	24.28
O=C(CSc1ccncc1)N1CCC2(CC1)c1ccccc1CC2O (stereo not drawn)	-23.26
COc1ccc(NC(=O)C2OC(c3cccs3)=NN2C(C)=O)cc1OC (stereo not drawn)	1.073
Cc1noc(C2CCC3(CCN(C(=O)c4cnccn4)CC3)O2)n1 (stereo not drawn)	-2.729
COc1cccc(Cn2c(=O)n(C)c(=O)c3sccc32)c1	1.486
Cn1ncc2c1NC(=O)CC2c1c(F)cccc1Cl (stereo not drawn)	11.26
O=C(NCCCNC(=O)c1cccc(O)c1)Nc1ccc(F)cc1F	17.1
O=C(NCCc1cccnc1)c1cn(CCN2CCNCC2)nn1	19.71
O=C(COc1cccc2c1CCC2=O)NCc1ccccc1Cl	5.234
CC(C)(C)C(=O)Nc1ccc(Oc2ccsc2C(=O)O)cc1	8.722
COc1ccc2c(c1)C(NCCc1c(C)noc1C)CCCO2 (stereo not drawn)	-39.16
COCCc1nnc(NC(=O)CSCc2ccccc2)o1	18.87
COc1ccc(CN2CCCC3(CCN(c4ccsc4)C3=O)C2)cc1.O=C(O)C(F)(F)F (stereo not drawn)	-16.01
CN(C)C(=O)Cn1c(C2CC2)c(CN2CCC(O)CC2)c2cccnc21.Cl	-27.9
COc1ccc(C(NC(=O)c2cccc[n+]2[O-])C2CC2)cc1 (stereo not drawn)	30.64
Cc1ccc(N2N=C(C(N)=O)S(=O)(=O)c3cccnc32)cc1	-24.23
CN(Cc1cccnc1)CC1CC12CCN(Cc1nccs1)CC2 (stereo not drawn)	9.587 & 8.674
N#Cc1cc(N2CCC(S(N)(=O)=O)CC2)c2ccccc2n1	25.34
Cl.O=C(NC[C@@]1(COc2cnccn2)C[C@@H](O)[C@@H](O)C1)C1CC1	-14.03
CC(CCc1ccccc1)NC(=O)Nc1cnn(CC(N)=O)c1 (stereo not drawn)	-25.77
O=C1CCSCC(C(=O)N2CCCC2)N1 (stereo not drawn)	7.983
CN(C)c1nc(NCCc2ccnn2C)ncc1F	21.49
COc1nccc(N2CC[C@@H](N3CCC(O)CC3)[C@H](O)C2)c1C#N	19.89
NC(=O)Nc1cccc(C(=O)N(Cc2ccncc2)C2CC2)c1	2.22

Repeated from the top, 3 entries:

Compound,percent effect
Cc1cc(NC(=O)c2nc(N3CCCC3)ncc2Cl)nc(C(C)C)n1,9.502
CCCn1nc(C)c2c1NC(=O)CC2c1ccc(CN2CCCC2)s1 (stereo not drawn),15.53
Cc1nc(CN2CCC3(C2)CN(C(=O)c2ccc[nH]2)C3)cs1,35.81

The values are deposited in ChEMBL (CHEMBL3988442, “University of Dundee, Small-Polar-MMV Screening Library” (2021)).